In PMC5412559:
Results are given in words; binding and its absence hold for the method and conditions named. In cells and extracts the contact can be indirect. Some entries that bind do so weakly or less than the wild type. Sequences can lack the tags named with a protein. Values belong to the binder of their own block, whether it stands above or below them.

Assays:
[1] = target: T1, MyD88-V5 (Drosophila melanogaster) (UniProt Q7K105); assay: co-IP; S2 cells cotransfected with MyD88-V5 and dsarm-3×HA; MyD88 precipitated (mouse anti-V5 with protein-A/G magnetic beads); Western blot
T1 sequence: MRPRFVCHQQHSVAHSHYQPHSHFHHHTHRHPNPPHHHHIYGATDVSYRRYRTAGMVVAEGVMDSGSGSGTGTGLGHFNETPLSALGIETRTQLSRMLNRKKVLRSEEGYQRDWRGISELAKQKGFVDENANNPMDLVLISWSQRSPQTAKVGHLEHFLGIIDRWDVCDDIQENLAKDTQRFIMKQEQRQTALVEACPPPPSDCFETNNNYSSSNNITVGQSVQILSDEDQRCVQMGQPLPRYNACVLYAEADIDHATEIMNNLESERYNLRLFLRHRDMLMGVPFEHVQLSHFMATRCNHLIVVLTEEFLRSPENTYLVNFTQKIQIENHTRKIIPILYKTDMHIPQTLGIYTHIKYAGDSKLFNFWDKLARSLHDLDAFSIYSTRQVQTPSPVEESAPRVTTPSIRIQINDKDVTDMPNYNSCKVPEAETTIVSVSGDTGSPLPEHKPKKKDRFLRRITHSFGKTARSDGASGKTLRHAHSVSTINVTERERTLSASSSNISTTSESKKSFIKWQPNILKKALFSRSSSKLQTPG

[2] = target: T2, Toll-6-3×Flag (native Toll-6) (Drosophila melanogaster) (UniProt Q9VUN0); assay: co-IP; S2 cells cotransfected, collected 48 h after transfection, lysed in NP-40 buffer or Flag affinity chromatography buffer; the Flag-tagged protein precipitated with anti-Flag antibody-conjugated agarose or magnetic beads; Western blot
T2 sequence: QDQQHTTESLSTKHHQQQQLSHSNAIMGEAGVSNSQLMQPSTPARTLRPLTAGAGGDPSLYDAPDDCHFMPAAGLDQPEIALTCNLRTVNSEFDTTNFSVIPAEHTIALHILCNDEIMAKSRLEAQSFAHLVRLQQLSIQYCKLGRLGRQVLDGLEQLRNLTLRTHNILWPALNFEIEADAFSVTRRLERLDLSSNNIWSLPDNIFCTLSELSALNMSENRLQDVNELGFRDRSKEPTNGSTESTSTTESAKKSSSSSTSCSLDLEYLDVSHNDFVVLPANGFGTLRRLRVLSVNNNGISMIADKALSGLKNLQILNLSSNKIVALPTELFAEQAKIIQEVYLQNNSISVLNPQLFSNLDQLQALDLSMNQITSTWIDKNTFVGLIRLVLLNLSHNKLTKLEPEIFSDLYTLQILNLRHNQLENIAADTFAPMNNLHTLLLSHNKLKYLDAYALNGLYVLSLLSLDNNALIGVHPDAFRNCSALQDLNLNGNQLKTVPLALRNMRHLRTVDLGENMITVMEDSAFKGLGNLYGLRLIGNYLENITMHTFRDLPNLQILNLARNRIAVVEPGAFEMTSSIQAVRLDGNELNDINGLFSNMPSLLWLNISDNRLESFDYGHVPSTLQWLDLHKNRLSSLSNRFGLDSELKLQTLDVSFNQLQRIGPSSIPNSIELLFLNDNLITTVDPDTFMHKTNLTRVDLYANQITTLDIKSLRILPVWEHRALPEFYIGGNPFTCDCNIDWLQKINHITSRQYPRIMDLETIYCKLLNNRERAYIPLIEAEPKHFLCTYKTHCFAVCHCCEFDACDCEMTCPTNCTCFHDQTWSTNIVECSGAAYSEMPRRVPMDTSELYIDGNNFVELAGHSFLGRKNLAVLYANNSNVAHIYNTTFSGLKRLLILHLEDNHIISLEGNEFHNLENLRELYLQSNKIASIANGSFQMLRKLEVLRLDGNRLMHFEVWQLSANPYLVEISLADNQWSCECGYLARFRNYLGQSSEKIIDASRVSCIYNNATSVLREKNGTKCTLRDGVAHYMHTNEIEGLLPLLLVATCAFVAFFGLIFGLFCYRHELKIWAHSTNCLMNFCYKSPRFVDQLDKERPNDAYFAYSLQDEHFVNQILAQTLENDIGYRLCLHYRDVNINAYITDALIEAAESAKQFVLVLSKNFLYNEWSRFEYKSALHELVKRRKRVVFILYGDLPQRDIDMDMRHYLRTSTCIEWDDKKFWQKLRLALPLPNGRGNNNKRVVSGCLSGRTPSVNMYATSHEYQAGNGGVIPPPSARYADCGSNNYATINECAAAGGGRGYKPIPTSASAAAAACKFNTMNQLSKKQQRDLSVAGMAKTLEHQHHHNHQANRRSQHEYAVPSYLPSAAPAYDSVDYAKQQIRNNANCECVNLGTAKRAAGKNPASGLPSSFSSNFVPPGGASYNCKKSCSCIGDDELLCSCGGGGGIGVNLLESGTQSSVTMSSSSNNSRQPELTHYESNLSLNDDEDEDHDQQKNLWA

[3] = target: T3, Toll-7-3×Flag (native Toll-7) (Drosophila melanogaster) (UniProt Q7KIN0); assay: as above
T3 sequence: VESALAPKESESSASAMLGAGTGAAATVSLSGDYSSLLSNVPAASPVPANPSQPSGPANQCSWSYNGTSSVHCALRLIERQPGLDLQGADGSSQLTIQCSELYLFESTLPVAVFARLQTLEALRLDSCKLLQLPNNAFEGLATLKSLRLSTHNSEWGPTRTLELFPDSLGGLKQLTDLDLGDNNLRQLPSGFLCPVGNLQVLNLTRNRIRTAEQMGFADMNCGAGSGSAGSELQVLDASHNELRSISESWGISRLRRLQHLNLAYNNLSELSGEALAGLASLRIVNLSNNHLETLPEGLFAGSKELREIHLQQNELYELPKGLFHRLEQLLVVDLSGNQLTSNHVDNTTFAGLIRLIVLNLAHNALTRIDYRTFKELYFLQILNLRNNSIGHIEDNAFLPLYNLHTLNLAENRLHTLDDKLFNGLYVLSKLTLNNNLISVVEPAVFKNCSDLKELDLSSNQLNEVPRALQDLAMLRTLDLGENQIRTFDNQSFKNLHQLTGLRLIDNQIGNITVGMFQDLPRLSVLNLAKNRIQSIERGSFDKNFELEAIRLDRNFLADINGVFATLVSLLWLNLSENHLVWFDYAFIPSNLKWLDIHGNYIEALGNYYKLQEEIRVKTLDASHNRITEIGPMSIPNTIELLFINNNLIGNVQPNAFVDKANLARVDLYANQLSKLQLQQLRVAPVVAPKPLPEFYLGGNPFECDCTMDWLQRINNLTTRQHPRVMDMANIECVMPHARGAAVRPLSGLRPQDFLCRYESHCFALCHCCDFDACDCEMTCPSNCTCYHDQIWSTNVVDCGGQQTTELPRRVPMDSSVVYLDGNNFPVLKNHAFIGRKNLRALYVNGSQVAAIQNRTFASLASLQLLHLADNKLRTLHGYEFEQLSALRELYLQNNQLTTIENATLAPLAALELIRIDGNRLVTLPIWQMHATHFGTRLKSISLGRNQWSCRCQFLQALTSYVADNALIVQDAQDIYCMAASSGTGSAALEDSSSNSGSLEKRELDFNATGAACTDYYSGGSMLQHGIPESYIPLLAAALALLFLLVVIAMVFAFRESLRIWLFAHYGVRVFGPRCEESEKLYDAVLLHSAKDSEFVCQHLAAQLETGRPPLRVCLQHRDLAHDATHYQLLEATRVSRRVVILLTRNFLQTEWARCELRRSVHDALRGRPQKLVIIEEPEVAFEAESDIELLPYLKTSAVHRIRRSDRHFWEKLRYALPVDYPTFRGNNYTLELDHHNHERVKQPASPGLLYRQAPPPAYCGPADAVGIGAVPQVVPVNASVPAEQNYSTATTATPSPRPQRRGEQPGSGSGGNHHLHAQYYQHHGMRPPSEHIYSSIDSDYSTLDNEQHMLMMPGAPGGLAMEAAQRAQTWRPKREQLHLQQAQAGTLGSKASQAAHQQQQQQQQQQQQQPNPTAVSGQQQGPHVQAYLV

- binding [1]: binds
B1: dSarm-3×HA (protein, UniProt Q6IDD9 1-1360)
chain: MKAAEIKRDLTNIQKSMSEINDLAKERITGGPGSISTTSASAITAPSTMSQTTTSRLAPKLTSAHPSIDDLRGLSRQDKITQLQKKIRASFENLVDHDDSNVIVTLPDDDDCPHNHFGSGLNLTHPTAAQLSASGLSGSSKTIDTIKFQEKSMKTESKTKVVTDGFSSEQATSNSAEMKRLQAGDIDYQESKGASAMRNRLEVDGVKTEENAAVIKEALSLRTGDITQQASNNVAASSITVQSENFSADKKAISQSQQSQTMTSNGIISQEKHVSSASQANYSMSHKGVSSTGSSMITSSSQMSAMNGQMLKLADLKLDDLKSLTAGSGQQEIEQTINKYSNMLTSIVSSLQEDERGGSAITVHDVGGKKSQYLEKINEVIRRAWAVPTHGHELGYSLCNSLRQSGGLDLLMKNCVKPDLQFSSAQLLEQCLTTENRKHVVDNGLDKVVNVACVCTKNSNMEHSRVGTGILEHLFKHSEGTCSDVIRLGGLDAVLFECRTSDLETLRHCASALANLSLYGGAENQEEMILRKVPMWLFPLAFHNDDNIKYYACLAIAVLVANKEIEAEVLKSGCLDLVEPFVTSHDPSAFARSNLAHAHGQSKHWLKRLVPVLSSNREEARNLAAFHFCMEAGIKREQGNTDIFREINAIEALKNVASCPNAIASKFAAQALRLIGETVPHKLSQQVPLWSVEDVQEWVKQIGFNDYIDKFNESQVDGDLLLKLNQDNLRADIGIGNGILLKRFERELQNLKRMADYSSKDTAKMHQFLSEIGTDYCTYTYAMLNAGIDKCALPHVNEDMLMTECGIHNSIHRLRILNAVKNLENSLPSSSEENMAKTLDVFVSYRRSNGSQLASLLKVHLQLRGFSVFIDVERLEAGKFDNGLLNSIRQAKNFVLVLTPDALHRCINDEDCKDWVHREIVAALNSNCNIIPIIDQQFDWPEVERLPEDMRSVAHFNGVNWIHDYQDACIDKLERFLRGEKNIDRIAAMVPGTPGSVSYQRMHSNDSDYQSGGAGAGSGAGTGGGGGGGVTGSVVDGLMVAANGSGQANHQANRYRQSPSPARQRGSTSQLSGYSRAPSKRSQILTPYRTQQAALLHKTGAGSASMQNMMPLAYLPPRRSSAAGLGHGSGSGMGSGYRSHSVDGLLDQAGSTPEQRIAAAAAKVTAGSTALTNASSTSTLQPEEEVTDAALNDSVTRRDKHTLSPPGNVQQHRKSRSLDHILSKQTLAELLPPSSELADGTQSMQNLAIPMTPQPQRRDTSSSSKSPTPERPPQPAMERVRERQSPEGVSATESEREDQPEECLRHGNQQRASASVHRGASLTSNKTSNSSLGSNFSAGGNNKTIFNRTMKKVRSLIKKP

- binding [2]: binds
- binding [3]: binds
B2: MyD88-V5 (protein, UniProt Q7K105 1-537)
chain: T1 sequence
